Results as given in patent US20120142722A1, “CONJUGATES OF CYTOTOXIC DRUGS” (priority 2009, published 2012).
At least one compound was matched to its structure with a doubt left.

Test system: A375 melanoma tumors
Assay: Tumor growth inhibition in subcutaneous A375 melanoma xenograft
Parameters: species or system athymic nude mice
Conditions: mouse, in vivo

Compound | Inhibitory effect on tumors compared with CCNU (in words) | Anti-cancer effect on tumors (in words) (30 mg/kg)
CCCCCC(CCC1CCC(NC(=O)N(CCCl)N=O)CC1)(C(=O)O)C(=O)O (centres unmarked) [ATT-1] | slightly greater inhibitory effect on the tumors than CCNU | 
CCOC(=O)C(C)(CCC1CCN(C(=O)Oc2ccc3nc4c(c(CC)c3c2)Cn2c-4cc3c(c2=O)COC(=O)C3(O)CC)CC1)C(=O)OCC (centres unmarked) [ATT-11E] |  | tumor regression and tumor growth inhibition
